Laboratory results reported in paper PMC7819943, “Rice protein-binding microarrays: a tool to detect cis-acting elements near promoter regions in rice”.
The other results are listed elsewhere or left out.

Each sequence was assayed against T1, OsSMF1 (Oryza sativa, UniProt Q6ZLB0 1-436) (assay: protein-binding microarray (RPBM); PBS, 2% BSA, 51.3 ng/ul salmon testes DNA, 50 uM zinc acetate, 200 nM TF, 25 C, 1 h; high values mean tight binding). Conditions: protein: recombinant; tags: N-terminal polyhistidine and DsRed monomer fusion (pET32a); chain copies: 2; label: CyDye5-dUTP incorporated in the synthesized complementary strand; 3' TTTTT single-stranded linker to array surface; dsDNA, one strand shown.
T1 sequence: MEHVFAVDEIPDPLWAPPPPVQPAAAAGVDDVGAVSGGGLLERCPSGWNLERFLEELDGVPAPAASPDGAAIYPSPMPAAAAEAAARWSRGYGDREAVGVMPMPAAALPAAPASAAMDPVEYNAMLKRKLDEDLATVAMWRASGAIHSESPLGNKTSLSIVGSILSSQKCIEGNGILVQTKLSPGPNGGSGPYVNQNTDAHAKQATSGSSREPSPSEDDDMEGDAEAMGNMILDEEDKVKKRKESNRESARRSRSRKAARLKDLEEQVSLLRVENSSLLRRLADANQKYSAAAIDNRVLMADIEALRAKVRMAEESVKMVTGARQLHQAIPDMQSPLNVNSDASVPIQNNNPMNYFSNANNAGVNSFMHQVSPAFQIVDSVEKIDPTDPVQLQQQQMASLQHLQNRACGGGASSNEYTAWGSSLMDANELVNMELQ
In short: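 Transcription factors, each fused N-terminally to a polyhistidine tag and DsRed, were expressed in E. coli BL21-CodonPlus and purified on Ni–NTA. A custom Agilent array was made double-stranded by primer extension with Cy5-dUTP and blocked with 2% BSA. It was incubated with 200 nM protein in PBS, 2% BSA, salmon testes DNA and 50 µM zinc acetate at 25 °C for 1 h, then washed. The binding signal is per-feature fluorescence intensity (arbitrary units) read on an Axon 4000B scanner.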

Row | Sequence | binding signal
1 | TGATGGTATGATTTTAATTTTGTGCGAATTCGAATGACATCGGAGTCACCTAGTGCAG | 3410 fluorescence intensity (a.u.)
2 | TGTGGGTGTGGGCTATTAATAATCGCAGCGTCACTACCACCGGAGTCACCTAGTGCAG | 4830 fluorescence intensity (a.u.)
3 | CACGAGTTACTGGTGACGTGTGTCACATCATCTATAAGAACGGAGTCACCTAGTGCAG | 7740 fluorescence intensity (a.u.)
4 | CGGCTTGAAAATATTTTACCACGTAAGGGAAAACGAAAACCGGAGTCACCTAGTGCAG | 3750 fluorescence intensity (a.u.)
5 | CAAGGGGCAAGCTCCACATCGAGCTTGCTGCCAACCTTCCCGGAGTCACCTAGTGCAG | 3400 fluorescence intensity (a.u.)
6 | GAGTGGGGCTGAAACATGCGCACGACAGCGGGCCTCATGGCGGAGTCACCTAGTGCAG | 3240 fluorescence intensity (a.u.)
7 | ACCACCAGCCCACCCCGATGTGTAATCACTGTGCCAGAGTCGGAGTCACCTAGTGCAG | 3640 fluorescence intensity (a.u.)
8 | CAGCACGTATGATAGTACTATTTTGCAACTTACAACATAACGGAGTCACCTAGTGCAG | 7550 fluorescence intensity (a.u.)
9 | TGTCCATCTCCACGACACGTACACAATTACACAAACGGTCCGGAGTCACCTAGTGCAG | 5090 fluorescence intensity (a.u.)
10 | GAGCGTCGCTATCTCATCCAACGGTCACTTGGTGCCCCTCCGGAGTCACCTAGTGCAG | 3140 fluorescence intensity (a.u.)
11 | TCTACCGGAATACTGTTACGCTGACGTAGACATGAGTAAGCGGAGTCACCTAGTGCAG | 8170 fluorescence intensity (a.u.)
12 | GGTGAAAGTGAGGAAGCCGTGTGAGTGACGTGTCGACGCACGGAGTCACCTAGTGCAG | 14700 fluorescence intensity (a.u.)
13 | CTCTGCTTACATAAAAGCAAAAGCAAAAGTAAACACACACCGGAGTCACCTAGTGCAG | 3490 fluorescence intensity (a.u.)
14 | AAGATGAAACCGAGTCGGCACCGATACGCTACGCGCGCACCGGAGTCACCTAGTGCAG | 3670 fluorescence intensity (a.u.)
15 | CCTCCTGTCAGACTGTCGTCAGTGTCACACTGTCACTGTCCGGAGTCACCTAGTGCAG | 6520 fluorescence intensity (a.u.)
16 | GGCGCCCGCCTGCTCCCGGGCCGCTGCCGCCGCGTCGCCCCGGAGTCACCTAGTGCAG | 27500 fluorescence intensity (a.u.)
17 | CAGGCTCGATGGCATACGCTATCTCAGGCTTTGCTACCATCGGAGTCACCTAGTGCAG | 3690 fluorescence intensity (a.u.)
18 | GGTTGTCTTTGCATGACTGGCCGGCTGGGTCCCCGGCCTTCGGAGTCACCTAGTGCAG | 4230 fluorescence intensity (a.u.)
19 | ACGATGATACAGACCAGTGGATGAACACCACGTCGTCCGTCGGAGTCACCTAGTGCAG | 6350 fluorescence intensity (a.u.)
20 | CATGGGAGAGTAGATACCGGTGACAAGTCATCGAAGTGTACGGAGTCACCTAGTGCAG | 3850 fluorescence intensity (a.u.)
21 | CACGTGGGACACCGCTCCCCGGCGCTCGCCACGTGGACGCCGGAGTCACCTAGTGCAG | 21700 fluorescence intensity (a.u.)

Row | Sequence | binding signal
22 | CCACGACTGGAAGTAGGAAGGTAAGAGAGAACATACGGGGCGGAGTCACCTAGTGCAG | 9690 fluorescence intensity (a.u.)
23 | CGCCGCGCGTGCCACGTTTACTCCCGTGGGCCCCGCAACGCGGAGTCACCTAGTGCAG | 4880 fluorescence intensity (a.u.)
24 | AAACCGACCCGTGAGCCAAGCCGCCGAGTCACTGCTCTCGCGGAGTCACCTAGTGCAG | 5710 fluorescence intensity (a.u.)
25 | TATCCAATGGAACTAGGTGATGATGGATGAATGTAGGATGCGGAGTCACCTAGTGCAG | 4200 fluorescence intensity (a.u.)
26 | TCCAATCTTACTACTTTAGAGGGTTTGCACGAAGATATTACGGAGTCACCTAGTGCAG | 3460 fluorescence intensity (a.u.)
27 | TTAGCGCAGTATTTAGGTAGGAGAAGGATGGTAGACACGTCGGAGTCACCTAGTGCAG | 4060 fluorescence intensity (a.u.)
28 | GGCTCAGATTGCCTCCGCGTCAGGCCGCATCACTGGTAGGCGGAGTCACCTAGTGCAG | 4170 fluorescence intensity (a.u.)
29 | ACTGGCCGCTCCGGCCACGCGTCCGCCGGCGATTGGCCGCCGGAGTCACCTAGTGCAG | 3270 fluorescence intensity (a.u.)
30 | AACGTCCCACGTGACACCCTATATAATACCCGATGTGACACGGAGTCACCTAGTGCAG | 5780 fluorescence intensity (a.u.)
31 | GTAGTATGTGTAGGTGATAACAGTAAGCTTGGGCCACGTACGGAGTCACCTAGTGCAG | 4060 fluorescence intensity (a.u.)
32 | ACATATCAAGATGTGGGTATTCTAGCTTCAAAGACTGATTCGGAGTCACCTAGTGCAG | 4140 fluorescence intensity (a.u.)
33 | CAGTTCATCGACGTGGCGTACCGGGTCAAGGTGTCGACCACGGAGTCACCTAGTGCAG | 9770 fluorescence intensity (a.u.)
34 | GGAATTCCCAGCCCATGTCGCCACCGCTTTAGGCGCAGCCCGGAGTCACCTAGTGCAG | 6510 fluorescence intensity (a.u.)
35 | CCTCAGGCCGCCTCTCGTGCTGTACACGTAGGATAGCTACCGGAGTCACCTAGTGCAG | 46200 fluorescence intensity (a.u.)
36 | AAGAGAGTACACCACATGCCTACGCAGCCTCATGTCCAGTCGGAGTCACCTAGTGCAG | 3440 fluorescence intensity (a.u.)
37 | GTGAGTGATCACGCACGTCAGACTGATCAAATCATGATGTCGGAGTCACCTAGTGCAG | 6710 fluorescence intensity (a.u.)
38 | GCTACTAGTAGGTACCAGCCACATCGACAATAAAAGCTCCCGGAGTCACCTAGTGCAG | 30400 fluorescence intensity (a.u.)
39 | CTTACACGGTCACGAGTTCGCAGCCATCTTCGCCATGATCCGGAGTCACCTAGTGCAG | 3290 fluorescence intensity (a.u.)
40 | GCTTTGGAACTCCTTTAGATTATAATCCAACTCAATTCAACGGAGTCACCTAGTGCAG | 4590 fluorescence intensity (a.u.)
41 | GAAAAGGCCCAATTTATCCAGGCTATACATTGGGCTTTTGCGGAGTCACCTAGTGCAG | 3190 fluorescence intensity (a.u.)
42 | CAAACTCGATCGAATCTGCCAGCTCACTCATGAGCTTAAGCGGAGTCACCTAGTGCAG | 8450 fluorescence intensity (a.u.)

Fetched one by one from the entries so far, three records:
Row | Sequence | binding signal
25 | TATCCAATGGAACTAGGTGATGATGGATGAATGTAGGATGCGGAGTCACCTAGTGCAG | 4200 fluorescence intensity (a.u.)
22 | CCACGACTGGAAGTAGGAAGGTAAGAGAGAACATACGGGGCGGAGTCACCTAGTGCAG | 9690 fluorescence intensity (a.u.)
1 | TGATGGTATGATTTTAATTTTGTGCGAATTCGAATGACATCGGAGTCACCTAGTGCAG | 3410 fluorescence intensity (a.u.)
